Reference: patent publication US20150153365A1
These are yes or no findings as the source states them, for the method shown. Binding calls can cover weak binding; strength is not graded here.

Experiments:
[1] = target: zebrafish aplnrb (zebrafish); assay: AP-ELA binding assay on transfected HEK293T cells, chromogenic alkaline phosphatase read-out
[2] = target: zebrafish aplnrb (zebrafish); assay: AP-ELA binding assay on transfected 293T cells (FIG. 7H)
[3] = target: zebrafish aplnrb (zebrafish); assay: AP-ELA binding assay on transfected 293T cells (FIG. 7G)

Measured: binding

QRPVNLTMRRKLRKHNCLQRRCMPLHSRVPFP (peptide, not shown: large carriers) [ELA conjugated to Alkaline Phosphatase (AP-ELA)]
binds: all assays above
